Test results published in PMC10400651.

Biological target: p53 WT (LNCaP lysate) (UniProt P04637)
Experiment: EMSA
Conditions: Thermo EMSA kit (20148) protocol; 6% native PAGE; supershift with 1 ug anti-p53 for 1 h at room temperature; recombinant p53 eluted in PBS; salt and pH not stated; protein in an extract; label: biotin

GCCCCCTCGCGCCCCGCCCCTTGTC (double strand) [CTNNB1-probe1 (MP53BS)]
binding result: no binding

For at least one entry, the source does not settle the construct or the ends of the probe. At least one result comes from cells or an extract, where the contact may be indirect. Negatives hold for the conditions tested.
